# Experimental data published in the supplement of paper PMC8728848.
# Some of the results follow.
# Experiments:
# Assay in all cases: glycan array binding signal (z-score within array); higher = stronger binding
# Conditions in all cases: glycan notation: IUPAC condensed, linker removed
# [1] = biological target: Gal(b1-4)GlcNAc(b1-2)Man(a1-3)[Gal(b1-4)GlcNAc(b1-2)Man(a1-6)]Man(b1-4)GlcNAc(b1-4)GlcNAc
# Summary of the method: (§1)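 Glycan array binding is given as a within-array Z-score, which can be read as non-binding when negative. The arrays, 3228 of them, came from the Consortium for Functional Glycomics database and were retained only where the protein sequence was available. Z-scores were averaged across arrays of the same protein sequence at different concentrations or buffers and across linkers.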
# [2] = biological target: Gal(b1-4)GlcNAc(b1-2)Man(a1-3)[Gal(b1-4)GlcNAc(b1-2)Man(a1-6)]Man(b1-4)GlcNAc(b1-4)[Fuc(a1-6)]GlcNAc
# Summary of the method: as §1
# [3] = biological target: Gal(b1-4)GlcNAc(b1-2)Man(a1-3)[Gal(b1-4)GlcNAc(b1-2)][GlcNAc(b1-4)]Man(b1-4)GlcNAc(b1-4)GlcNAc
# Summary of the method: as §1
# [4] = biological target: Gal(b1-4)GlcNAc(b1-2)Man(a1-3)[GlcNAc(b1-2)Man(a1-6)]Man(b1-4)GlcNAc(b1-4)GlcNAc
# Summary of the method: as §1
# [5] = biological target: Gal(b1-4)GlcNAc(b1-2)Man(a1-3)[Man(a1-6)]Man(b1-4)GlcNAc(b1-4)GlcNAc
# Summary of the method: as §1
# [6] = biological target: Gal(b1-4)GlcNAc(b1-2)Man(a1-6)Man(b1-4)GlcNAc(b1-4)GlcNAc
# Summary of the method: as §1
# [7] = biological target: Gal(b1-4)GlcNAc(b1-2)Man(a1-6)[GlcNAc(b1-2)Man(a1-3)]Man(b1-4)GlcNAc(b1-4)GlcNAc
# Summary of the method: as §1
# [8] = biological target: Gal(b1-4)GlcNAc(b1-2)Man(a1-6)[Man(a1-3)]Man(b1-4)GlcNAc(b1-4)GlcNAc
# Summary of the method: as §1
# [9] = biological target: Gal(b1-4)GlcNAc(b1-2)[Gal(b1-4)GlcNAc(b1-4)]Man(a1-3)[Gal(b1-4)GlcNAc(b1-2)Man(a1-6)]Man(b1-4)GlcNAc(b1-4)GlcNAc
# Summary of the method: as §1
# [10] = biological target: Gal(b1-4)GlcNAc(b1-2)[Gal(b1-4)GlcNAc(b1-4)]Man(a1-3)[Gal(b1-4)GlcNAc(b1-2)[Gal(b1-4)GlcNAc(b1-6)]Man(a1-6)]Man(b1-4)GlcNAc(b1-4)GlcNAc
# Summary of the method: as §1
# [11] = biological target: Gal(b1-4)GlcNAc(b1-2)[Gal(b1-4)GlcNAc(b1-4)]Man(a1-3)[GlcNAc(b1-4)][Gal(b1-4)GlcNAc(b1-2)Man(a1-6)]Man(b1-4)GlcNAc(b1-4)GlcNAc
# Summary of the method: as §1
# [12] = biological target: Gal(b1-4)GlcNAc(b1-2)[Gal(b1-4)GlcNAc(b1-4)]Man(a1-3)[GlcNAc(b1-4)][Gal(b1-4)GlcNAc(b1-2)[Gal(b1-4)GlcNAc(b1-6)]Man(a1-6)]Man(b1-4)GlcNAc(b1-4)GlcNAc
# Summary of the method: as §1
# [13] = biological target: Gal(b1-4)GlcNAc(b1-2)[Gal(b1-4)GlcNAc(b1-6)]Man(a1-6)[Gal(b1-4)GlcNAc(b1-2)Man(a1-3)]Man(b1-4)GlcNAc(b1-4)GlcNAc
# Summary of the method: as §1
# [14] = biological target: Gal(b1-4)GlcNAc(b1-2)[Gal(b1-4)GlcNAc(b1-6)]Man(a1-6)[GlcNAc(b1-4)][Gal(b1-4)GlcNAc(b1-2)Man(a1-3)]Man(b1-4)GlcNAc(b1-4)GlcNAc
# Summary of the method: as §1
# [15] = biological target: Gal(b1-4)GlcNAc(b1-3)Gal(b1-3)GlcNAc
# Summary of the method: as §1
# [16] = biological target: Gal(b1-4)GlcNAc(b1-3)Gal(b1-4)Glc
# Summary of the method: as §1
# [17] = biological target: Gal(b1-4)GlcNAc(b1-3)Gal(b1-4)GlcNAc
# Summary of the method: as §1
# [18] = biological target: Gal(b1-4)GlcNAc(b1-3)Gal(b1-4)GlcNAc(b1-3)Gal(b1-4)GlcNAc
# Summary of the method: as §1
# [19] = biological target: Gal(b1-4)GlcNAc(b1-3)Gal(b1-4)[Fuc(a1-3)GlcNAc(b1-6)]Gal(b1-4)Glc
# Summary of the method: as §1
# [20] = biological target: Gal(b1-4)GlcNAc(b1-3)Gal(b1-4)[Fuc(a1-3)]GlcNAc(b1-3)Gal(b1-4)[Fuc(a1-3)]GlcNAc
# Summary of the method: as §1
# [21] = biological target: Gal(b1-4)GlcNAc(b1-3)GalNAc
# Summary of the method: as §1
# [22] = biological target: Gal(b1-4)GlcNAc(b1-3)[Gal(b1-4)GlcNAc(b1-6)]Gal(b1-4)GlcNAc
# Summary of the method: as §1
# [23] = biological target: Gal(b1-4)GlcNAc(b1-3)[Gal(b1-4)GlcNAc(b1-6)]GalNAc
# Summary of the method: as §1
# [24] = biological target: Gal(b1-4)GlcNAc(b1-3)[GlcNAc(b1-6)]Gal(b1-4)GlcNAc
# Summary of the method: as §1
# [25] = biological target: Gal(b1-4)GlcNAc(b1-6)Gal(b1-4)GlcNAc
# Summary of the method: as §1
# [26] = biological target: Gal(b1-4)GlcNAc(b1-6)GalNAc
# Summary of the method: as §1
# [27] = biological target: Gal(b1-4)GlcNAc(b1-6)[Gal(b1-3)]GalNAc
# Summary of the method: as §1
# [28] = biological target: Gal(b1-6)Gal
# Summary of the method: as §1
# [29] = biological target: Gal3S(b1-3)GalNAc
# Summary of the method: as §1
# [30] = biological target: Gal3S(b1-3)GlcNAc
# Summary of the method: as §1
# [31] = biological target: Gal3S(b1-3)[Fuc(a1-4)]GlcNAc
# Summary of the method: as §1
# [32] = biological target: Gal3S(b1-4)Glc
# Summary of the method: as §1
# [33] = biological target: Gal3S(b1-4)Glc6S
# Summary of the method: as §1
# [34] = biological target: Gal3S(b1-4)GlcNAc
# Summary of the method: as §1
# [35] = biological target: Gal3S(b1-4)GlcNAc6S
# Summary of the method: as §1
# [36] = biological target: Gal3S(b1-4)[Fuc(a1-3)]Glc
# Summary of the method: as §1
# [37] = biological target: Gal3S(b1-4)[Fuc(a1-3)]Glc6S
# Summary of the method: as §1
# [38] = biological target: Gal3S4S(b1-4)GlcNAc
# Summary of the method: as §1
# [39] = biological target: Gal3S6S(b1-4)GlcNAc
# Summary of the method: as §1
# [40] = biological target: Gal3S6S(b1-4)GlcNAc6S
# Summary of the method: as §1
# [41] = biological target: Gal4S(b1-4)GlcNAc
# Summary of the method: as §1
# [42] = biological target: Gal4S6S(b1-4)GlcNAc
# Summary of the method: as §1
# [43] = biological target: Gal6S(b1-3)GlcNAc
# Summary of the method: as §1
# [44] = biological target: Gal6S(b1-3)GlcNAc6S
# Summary of the method: as §1
# [45] = biological target: Gal6S(b1-4)Glc
# Summary of the method: as §1
binder,measurement,setting,value
"Eosinophil-derived neurotoxin (EDN) (Homo sapiens), P10153 (protein) MVPKLFTSQICLLLLLGLLAVEGSLHVKPPQFTWAQWFETQHINMTSQQCTNAMQVINNYQRRCKNQNTFLLTTFANVVNVCGNPNMTCPSNKTRKNCHHSGSQVPLIHCNLTTPSPQNISNCRYAQTPANMFYIVACDNRDQRRDPPQYPVVPVHLDRII",glycan array binding signal (z-score),[1],-0.089
same,glycan array binding signal (z-score),[2],1.36
same,glycan array binding signal (z-score),[3],-0.119
same,glycan array binding signal (z-score),[4],0.268
same,glycan array binding signal (z-score),[5],0.109
same,glycan array binding signal (z-score),[6],0.225
same,glycan array binding signal (z-score),[7],-0.253
same,glycan array binding signal (z-score),[8],-0.853
same,glycan array binding signal (z-score),[9],-0.461
same,glycan array binding signal (z-score),[10],-0.48
same,glycan array binding signal (z-score),[11],-0.676
same,glycan array binding signal (z-score),[12],0.239
same,glycan array binding signal (z-score),[13],-1.1
same,glycan array binding signal (z-score),[14],-0.279
same,glycan array binding signal (z-score),[15],-0.443
same,glycan array binding signal (z-score),[16],-1.02
same,glycan array binding signal (z-score),[17],-0.132
same,glycan array binding signal (z-score),[18],0.104
same,glycan array binding signal (z-score),[19],0.142
same,glycan array binding signal (z-score),[20],-0.777
same,glycan array binding signal (z-score),[21],-0.002
same,glycan array binding signal (z-score),[22],1.13
same,glycan array binding signal (z-score),[23],-0.046
same,glycan array binding signal (z-score),[24],1.36
same,glycan array binding signal (z-score),[25],0.42
same,glycan array binding signal (z-score),[26],0
same,glycan array binding signal (z-score),[27],0.024
same,glycan array binding signal (z-score),[28],-0.248
same,glycan array binding signal (z-score),[29],0.175
same,glycan array binding signal (z-score),[30],0.392
same,glycan array binding signal (z-score),[31],0.104
same,glycan array binding signal (z-score),[32],-0.269
same,glycan array binding signal (z-score),[33],0.49
same,glycan array binding signal (z-score),[34],-0.491
same,glycan array binding signal (z-score),[35],-0.506
same,glycan array binding signal (z-score),[36],0.278
same,glycan array binding signal (z-score),[37],0.847
same,glycan array binding signal (z-score),[38],0.029
same,glycan array binding signal (z-score),[39],-0.241
same,glycan array binding signal (z-score),[40],0.136
same,glycan array binding signal (z-score),[41],0.19
same,glycan array binding signal (z-score),[42],0.33
same,glycan array binding signal (z-score),[43],-0.091
same,glycan array binding signal (z-score),[44],0.361
same,glycan array binding signal (z-score),[45],-0.47

# For convenience, part of the list above:
binder,measurement,setting,value
"Eosinophil-derived neurotoxin (EDN) (Homo sapiens), P10153 (protein) MVPKLFTSQICLLLLLGLLAVEGSLHVKPPQFTWAQWFETQHINMTSQQCTNAMQVINNYQRRCKNQNTFLLTTFANVVNVCGNPNMTCPSNKTRKNCHHSGSQVPLIHCNLTTPSPQNISNCRYAQTPANMFYIVACDNRDQRRDPPQYPVVPVHLDRII",glycan array binding signal (z-score),[24],1.36
same,glycan array binding signal (z-score),[25],0.42
same,glycan array binding signal (z-score),[26],0
same,glycan array binding signal (z-score),[27],0.024
same,glycan array binding signal (z-score),[28],-0.248
same,glycan array binding signal (z-score),[29],0.175
same,glycan array binding signal (z-score),[30],0.392
same,glycan array binding signal (z-score),[31],0.104
